# Some of the results follow. No stated cut-off is given here; in the data, active = 150% or more and inactive = the rest. Repeats are few or missing, and single values can be far off.
# System: Staphylococcus aureus JE2-lux inside RAW 264.7 macrophages
# Assay: intracellular bacterial bioluminescence relative to DMSO vehicle; higher = higher intracellular bacterial metabolic activity
# Settings: 10 µM; treatment time 4 h; gentamicin 50 µg/ml
# Experimental: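 RAW 264.7 macrophages infected with bioluminescent MRSA JE2-lux (MOI 100) were dispensed into 384-well plates with 10 µM compound in the presence of 50 µg/ml gentamicin. After 4 h at 37 °C, bacterial bioluminescence (a proxy for intracellular bacterial metabolic activity) and host cell viability (CellTiter-Fluor) were read and normalised to 0.1% DMSO vehicle controls. Single-pass screen of the UNC CICBDD kinase-targeted library (>4,700 compounds).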
row,SMILES,intracellular bacterial bioluminescence
1,COC(=O)C1=C(N)Oc2cc(C)n(Cc3ccccc3)c(=O)c2C12C(=O)N(C)c1ccccc12 (stereo not given),inactive: 87.5%
2,O=C(C(=O)N1CCC2(CC1)OCCO2)c1c[nH]c2ccccc12,inactive: 107%
3,CCCCn1c(=S)[nH]c(O)c(C2=NN(C(C)=O)C(c3ccc4c(c3)OCO4)C2)c1=O (stereo not given),inactive: 97.5%
4,CCC(=O)N1N=C(c2c(O)[nH]c(=S)n(C)c2=O)CC1c1cc(OC)ccc1OC (stereo not given),inactive: 74.4%
5,COC(=O)c1ccc(C(=O)OC)c(NC(=O)c2cccn(Cc3ccc(C)cc3)c2=O)c1,inactive: 103%
6,O=C1NC(=S)NC(=O)C1=Cc1ccc(-c2cc(Cl)ccc2Cl)o1,inactive: 23.5%
7,CCC(=O)N1N=C(c2c(O)n(C)c(=S)n(C)c2=O)CC1c1ccc(N(CC)CC)cc1 (stereo not given),inactive: 96.3%
8,CN(CCC#N)c1ccc(C=C2C(=O)NC(=S)NC2=O)cc1,inactive: 118%
9,O=C(c1cccnc1)N1Cc2ccccc2-n2cccc2C1c1cc(F)cc(F)c1 (stereo not given),inactive: 82.1%
10,O=C(c1ncoc1-c1ccc(F)cc1)N1CC2CC(C1)c1cccc(=O)n1C2 (stereo not given),inactive: 108%
11,O=C1NC(=S)NC(=O)C1=CNc1ccc(Cl)cc1C(=O)c1ccccc1,inactive: 89.2%
12,Cc1nc2nc(-c3ccc(C(C)(C)C)cc3)nn2c(C)c1CC(=O)N1CCN(CCO)CC1,inactive: 110%
13,O=C(Nc1ccncc1)c1cccn(Cc2ccccc2F)c1=O,inactive: 49%
14,CC1Oc2ccc(S(=O)(=O)N3CC4CC(C3)c3cccc(=O)n3C4)cc2NC1=O (stereo not given),inactive: 88.2%
15,Cc1ccc(-c2ccc(C=C3C(=O)NC(=O)NC3=O)o2)cc1,inactive: 78.5%
16,COc1ccc(OC)c(N2C(=O)NC(=O)/C(=C\c3ccco3)C2=O)c1,inactive: 109%
17,COc1ccc(C=C2C(=O)NC(=O)NC2=O)cc1OC,inactive: 101%
18,CC(=O)c1cccc(NC(=O)N2CCC3(CC2)OCCO3)c1,inactive: 98%
19,O=C1NC(=O)C(=CNc2ccccc2C(=O)c2ccccc2)C(=O)N1,inactive: 105%
20,CC(=O)N1N=C(c2c(O)n(C)c(=S)n(C)c2=O)CC1c1ccc(C(C)C)cc1 (stereo not given),inactive: 94.2%

row,SMILES,intracellular bacterial bioluminescence
1,CC(=O)C1(c2ccccc2)CCN(C(=O)c2ncoc2-c2ccc(F)cc2)CC1,inactive: 122%
2,O=C(c1ccccc1)c1cc(Cl)ccc1NC(=O)c1coc2ccccc2c1=O,inactive: 111%
3,Cc1nnc(N2CCNCC2)c2nn(-c3ccccc3)c(C)c12,inactive: 93.5%
4,CCCCn1c(=S)[nH]c(O)c(C2=NN(C(=O)CC)C(c3ccc(N(CC)CC)cc3)C2)c1=O (stereo not given),inactive: 107%
5,Cc1ccc(N2C(=O)NC(=O)/C(=C/c3cn(C)c4ccccc34)C2=O)cc1,inactive: 112%
6,CCS(=O)(=O)c1cccc(C(=O)Nc2ccc(Cl)cc2C(=O)c2ccccc2)c1,inactive: 104%
7,Cc1cc(O)c(C(=O)Nc2cccc(Cl)c2)c(=O)n1CC1CCCO1 (stereo not given),inactive: 120%
8,O=C1NC(=O)C(=Cc2ccc(-c3cccc([N+](=O)[O-])c3)o2)C(=O)N1,inactive: 50.5%
9,Cc1ccccc1-c1ncccc1C(=O)N1CCC(C(=O)N2CCC3(CC2)OCCO3)CC1,inactive: 84.9%
10,O=C1CN=C(c2ccc(F)cc2)c2cc(F)ccc2N1,inactive: 94.9%
11,COC(=O)C1=C(N)Oc2cc(C)n(CC3CCCO3)c(=O)c2C12C(=O)Nc1ccccc12 (stereo not given),inactive: 118%
12,O=C1NC(=S)NC(=O)C1=Cc1nc(-c2ccc(Cl)cc2)n2ccccc12,inactive: 82.1%
13,Nc1c(C(=O)OC2CCCCC2)c2nc3ccccc3nc2n1Cc1ccco1,inactive: 15.9%
14,Cn1cnc([N+](=O)[O-])c1Sc1ccc([N+](=O)[O-])cc1,inactive: 46.8%
15,O=C1NC(=O)C(=Cc2nc(-c3ccccc3Cl)n3ccccc23)C(=O)N1,inactive: 81.8%
16,CC1=CC(=C2C(=O)NC(=S)NC2=O)C=C(C)N1Cc1ccco1,inactive: 91.6%
17,O=C1NC(=O)C(=NNc2ccc(OC(F)F)cc2)C(=O)N1,inactive: 106%
18,CC(C)OCCCn1c(N)c(C(=O)OCC2CCCO2)c2nc3ccccc3nc21 (stereo not given),inactive: 47.1%
19,CS(=O)(=O)c1ccccc1C(=O)Nc1ccc(Cl)cc1C(=O)c1ccccc1Cl,inactive: 87.1%
20,CC1C(C#N)=C(N)Oc2c1c(=O)oc1ccccc21 (stereo not given),inactive: 139%

# A portion taken from the entries so far, for reference:
row,SMILES,intracellular bacterial bioluminescence
7,Cc1cc(O)c(C(=O)Nc2cccc(Cl)c2)c(=O)n1CC1CCCO1 (stereo not given),inactive: 120%
8,O=C1NC(=O)C(=Cc2ccc(-c3cccc([N+](=O)[O-])c3)o2)C(=O)N1,inactive: 50.5%
9,Cc1ccccc1-c1ncccc1C(=O)N1CCC(C(=O)N2CCC3(CC2)OCCO3)CC1,inactive: 84.9%
10,O=C1CN=C(c2ccc(F)cc2)c2cc(F)ccc2N1,inactive: 94.9%
11,COC(=O)C1=C(N)Oc2cc(C)n(CC3CCCO3)c(=O)c2C12C(=O)Nc1ccccc12 (stereo not given),inactive: 118%
12,O=C1NC(=S)NC(=O)C1=Cc1nc(-c2ccc(Cl)cc2)n2ccccc12,inactive: 82.1%
13,Nc1c(C(=O)OC2CCCCC2)c2nc3ccccc3nc2n1Cc1ccco1,inactive: 15.9%
14,Cn1cnc([N+](=O)[O-])c1Sc1ccc([N+](=O)[O-])cc1,inactive: 46.8%
